What all share (test): log2 fold change, soluble protein after heating vs DMSO (PISA); higher = thermal stabilisation; K562 cells, 10 uM, 30 min; active = over 0.2 and 3.5 SD of the protein, either way, in both replicates (recomputed)
Compound in assay [1]: CC[C@@H]1C(=O)N(C)c2cnc(Nc3ccc(C(=O)NC4CCN(C)CC4)cc3OC)nc2N1C1CCCC1
In outline:
(§1)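 Thermal stability values are relative to control samples and come from duplicates. They are expressed as log2 fold changes. For measurement, K562 cells (2×10^6 cells/mL) received 10 μM compound for 30 min, and aliquots were heated for 3 min over 48°C-58°C, pooled, and extracted at 4°C in PBS with 0.5% NP-40. Soluble protein, the supernatant after 21,000xg for 90 min, was quantified by TMTpro 16plex LC-MS/MS with equalised channel sums.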

Sequences of proteins named here, by UniProt entry; tags and fusion partners are left off. A change or cut given only in a name is not applied to a line headed by its entry.
UniProt P00742, whole entry, looked up: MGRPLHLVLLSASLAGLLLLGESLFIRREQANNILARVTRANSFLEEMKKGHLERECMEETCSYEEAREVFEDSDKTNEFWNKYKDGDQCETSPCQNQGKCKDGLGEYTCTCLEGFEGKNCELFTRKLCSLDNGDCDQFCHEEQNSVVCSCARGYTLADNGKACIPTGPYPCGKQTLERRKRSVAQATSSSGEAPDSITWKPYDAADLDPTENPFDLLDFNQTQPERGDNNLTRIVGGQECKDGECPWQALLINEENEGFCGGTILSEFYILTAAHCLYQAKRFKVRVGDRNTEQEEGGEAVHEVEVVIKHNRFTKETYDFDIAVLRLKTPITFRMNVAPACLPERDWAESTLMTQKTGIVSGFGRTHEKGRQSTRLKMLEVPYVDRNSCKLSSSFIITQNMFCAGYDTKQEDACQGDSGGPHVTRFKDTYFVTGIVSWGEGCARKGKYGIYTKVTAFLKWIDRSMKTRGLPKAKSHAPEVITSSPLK
UniProt O43491, whole entry, looked up: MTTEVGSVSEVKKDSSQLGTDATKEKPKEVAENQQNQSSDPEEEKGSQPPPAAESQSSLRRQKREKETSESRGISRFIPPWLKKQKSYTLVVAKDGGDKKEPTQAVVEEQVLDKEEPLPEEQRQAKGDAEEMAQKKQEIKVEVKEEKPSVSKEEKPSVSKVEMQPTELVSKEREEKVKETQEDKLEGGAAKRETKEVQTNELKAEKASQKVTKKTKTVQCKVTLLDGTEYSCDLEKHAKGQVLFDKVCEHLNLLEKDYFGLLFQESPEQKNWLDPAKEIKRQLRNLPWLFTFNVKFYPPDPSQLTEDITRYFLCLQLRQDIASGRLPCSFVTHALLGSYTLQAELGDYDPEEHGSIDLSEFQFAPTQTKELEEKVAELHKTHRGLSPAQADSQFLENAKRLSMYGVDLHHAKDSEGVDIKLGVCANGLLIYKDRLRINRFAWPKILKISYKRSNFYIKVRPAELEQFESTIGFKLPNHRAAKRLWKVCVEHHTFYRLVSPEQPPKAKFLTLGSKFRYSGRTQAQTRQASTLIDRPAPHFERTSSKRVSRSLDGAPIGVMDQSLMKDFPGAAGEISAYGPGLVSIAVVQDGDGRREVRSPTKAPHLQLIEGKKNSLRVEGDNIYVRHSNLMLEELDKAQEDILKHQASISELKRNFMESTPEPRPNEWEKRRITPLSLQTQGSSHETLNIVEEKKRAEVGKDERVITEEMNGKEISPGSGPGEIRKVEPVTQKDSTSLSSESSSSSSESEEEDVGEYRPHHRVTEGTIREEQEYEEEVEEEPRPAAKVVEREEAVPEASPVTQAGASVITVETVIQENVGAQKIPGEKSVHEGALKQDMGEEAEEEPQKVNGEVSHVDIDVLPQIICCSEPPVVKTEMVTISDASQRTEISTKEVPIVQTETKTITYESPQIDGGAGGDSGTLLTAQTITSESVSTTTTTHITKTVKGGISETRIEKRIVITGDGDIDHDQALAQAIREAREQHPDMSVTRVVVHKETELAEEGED
UniProt Q8N0U4: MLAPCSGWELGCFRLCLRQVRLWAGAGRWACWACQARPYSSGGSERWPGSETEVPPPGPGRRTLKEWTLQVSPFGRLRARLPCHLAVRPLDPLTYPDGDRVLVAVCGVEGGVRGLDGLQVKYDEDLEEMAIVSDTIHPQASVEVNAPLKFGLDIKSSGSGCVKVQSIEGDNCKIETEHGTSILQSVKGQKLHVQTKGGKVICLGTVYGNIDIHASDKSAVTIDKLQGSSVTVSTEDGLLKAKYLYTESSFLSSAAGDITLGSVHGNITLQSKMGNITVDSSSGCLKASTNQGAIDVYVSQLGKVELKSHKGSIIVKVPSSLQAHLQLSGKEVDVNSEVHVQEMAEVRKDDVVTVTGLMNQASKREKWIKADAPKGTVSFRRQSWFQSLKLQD
UniProt Q8IXS8: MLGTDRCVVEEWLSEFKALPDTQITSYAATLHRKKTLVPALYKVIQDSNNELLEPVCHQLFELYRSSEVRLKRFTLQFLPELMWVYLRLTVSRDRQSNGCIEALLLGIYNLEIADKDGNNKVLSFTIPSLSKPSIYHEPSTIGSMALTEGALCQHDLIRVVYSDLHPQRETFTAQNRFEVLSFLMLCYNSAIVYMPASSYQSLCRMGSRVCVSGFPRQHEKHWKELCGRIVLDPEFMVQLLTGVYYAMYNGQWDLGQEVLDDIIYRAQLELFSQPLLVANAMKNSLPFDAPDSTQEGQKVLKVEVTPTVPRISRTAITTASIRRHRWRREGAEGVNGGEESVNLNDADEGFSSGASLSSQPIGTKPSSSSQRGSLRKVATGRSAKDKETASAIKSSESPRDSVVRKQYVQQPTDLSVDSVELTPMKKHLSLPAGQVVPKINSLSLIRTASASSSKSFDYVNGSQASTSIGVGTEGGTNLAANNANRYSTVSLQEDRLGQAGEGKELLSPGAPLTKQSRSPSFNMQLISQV
UniProt Q6P1L5: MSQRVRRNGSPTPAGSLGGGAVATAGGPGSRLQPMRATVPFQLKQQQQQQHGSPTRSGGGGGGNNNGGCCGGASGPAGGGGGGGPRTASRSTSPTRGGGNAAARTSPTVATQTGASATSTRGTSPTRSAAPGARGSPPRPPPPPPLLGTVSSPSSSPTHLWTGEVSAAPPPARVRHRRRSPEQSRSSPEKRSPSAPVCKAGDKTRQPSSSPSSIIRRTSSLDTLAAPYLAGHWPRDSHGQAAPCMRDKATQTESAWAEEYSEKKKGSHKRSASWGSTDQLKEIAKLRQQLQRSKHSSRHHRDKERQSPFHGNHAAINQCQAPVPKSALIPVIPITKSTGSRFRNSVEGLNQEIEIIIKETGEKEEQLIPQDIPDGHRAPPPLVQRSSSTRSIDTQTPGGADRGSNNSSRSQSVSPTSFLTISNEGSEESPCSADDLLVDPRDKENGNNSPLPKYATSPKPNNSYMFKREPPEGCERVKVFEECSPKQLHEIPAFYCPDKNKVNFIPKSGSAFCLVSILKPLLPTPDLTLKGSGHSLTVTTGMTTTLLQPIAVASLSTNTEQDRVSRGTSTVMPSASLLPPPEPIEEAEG
UniProt Q86V87: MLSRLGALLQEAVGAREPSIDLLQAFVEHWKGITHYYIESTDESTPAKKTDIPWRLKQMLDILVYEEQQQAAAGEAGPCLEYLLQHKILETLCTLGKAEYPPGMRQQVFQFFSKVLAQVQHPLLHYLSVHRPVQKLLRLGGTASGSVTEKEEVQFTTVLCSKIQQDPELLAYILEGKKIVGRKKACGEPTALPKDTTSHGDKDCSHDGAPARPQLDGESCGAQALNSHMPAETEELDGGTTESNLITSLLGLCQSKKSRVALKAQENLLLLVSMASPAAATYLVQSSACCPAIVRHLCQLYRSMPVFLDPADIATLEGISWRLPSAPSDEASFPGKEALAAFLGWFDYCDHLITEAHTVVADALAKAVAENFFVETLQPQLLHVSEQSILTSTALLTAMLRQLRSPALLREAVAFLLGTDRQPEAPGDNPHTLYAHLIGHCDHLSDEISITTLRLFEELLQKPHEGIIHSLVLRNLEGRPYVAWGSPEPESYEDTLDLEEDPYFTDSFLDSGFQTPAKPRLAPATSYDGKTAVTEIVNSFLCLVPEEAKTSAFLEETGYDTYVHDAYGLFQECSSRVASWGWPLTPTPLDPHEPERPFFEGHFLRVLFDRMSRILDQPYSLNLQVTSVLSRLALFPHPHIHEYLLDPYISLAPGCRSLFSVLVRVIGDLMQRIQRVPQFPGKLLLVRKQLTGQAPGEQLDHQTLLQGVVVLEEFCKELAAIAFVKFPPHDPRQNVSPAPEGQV
UniProt Q9NWS6: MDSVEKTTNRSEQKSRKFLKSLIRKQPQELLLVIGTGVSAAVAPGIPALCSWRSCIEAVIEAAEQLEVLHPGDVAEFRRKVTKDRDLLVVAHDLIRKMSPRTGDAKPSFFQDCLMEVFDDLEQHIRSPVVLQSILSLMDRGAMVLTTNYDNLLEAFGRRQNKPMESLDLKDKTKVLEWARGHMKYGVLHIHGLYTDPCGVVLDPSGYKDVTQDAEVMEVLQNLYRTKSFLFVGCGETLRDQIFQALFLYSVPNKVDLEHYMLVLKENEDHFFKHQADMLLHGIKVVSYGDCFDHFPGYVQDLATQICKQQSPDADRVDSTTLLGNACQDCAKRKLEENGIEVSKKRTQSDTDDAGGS
UniProt Q92817: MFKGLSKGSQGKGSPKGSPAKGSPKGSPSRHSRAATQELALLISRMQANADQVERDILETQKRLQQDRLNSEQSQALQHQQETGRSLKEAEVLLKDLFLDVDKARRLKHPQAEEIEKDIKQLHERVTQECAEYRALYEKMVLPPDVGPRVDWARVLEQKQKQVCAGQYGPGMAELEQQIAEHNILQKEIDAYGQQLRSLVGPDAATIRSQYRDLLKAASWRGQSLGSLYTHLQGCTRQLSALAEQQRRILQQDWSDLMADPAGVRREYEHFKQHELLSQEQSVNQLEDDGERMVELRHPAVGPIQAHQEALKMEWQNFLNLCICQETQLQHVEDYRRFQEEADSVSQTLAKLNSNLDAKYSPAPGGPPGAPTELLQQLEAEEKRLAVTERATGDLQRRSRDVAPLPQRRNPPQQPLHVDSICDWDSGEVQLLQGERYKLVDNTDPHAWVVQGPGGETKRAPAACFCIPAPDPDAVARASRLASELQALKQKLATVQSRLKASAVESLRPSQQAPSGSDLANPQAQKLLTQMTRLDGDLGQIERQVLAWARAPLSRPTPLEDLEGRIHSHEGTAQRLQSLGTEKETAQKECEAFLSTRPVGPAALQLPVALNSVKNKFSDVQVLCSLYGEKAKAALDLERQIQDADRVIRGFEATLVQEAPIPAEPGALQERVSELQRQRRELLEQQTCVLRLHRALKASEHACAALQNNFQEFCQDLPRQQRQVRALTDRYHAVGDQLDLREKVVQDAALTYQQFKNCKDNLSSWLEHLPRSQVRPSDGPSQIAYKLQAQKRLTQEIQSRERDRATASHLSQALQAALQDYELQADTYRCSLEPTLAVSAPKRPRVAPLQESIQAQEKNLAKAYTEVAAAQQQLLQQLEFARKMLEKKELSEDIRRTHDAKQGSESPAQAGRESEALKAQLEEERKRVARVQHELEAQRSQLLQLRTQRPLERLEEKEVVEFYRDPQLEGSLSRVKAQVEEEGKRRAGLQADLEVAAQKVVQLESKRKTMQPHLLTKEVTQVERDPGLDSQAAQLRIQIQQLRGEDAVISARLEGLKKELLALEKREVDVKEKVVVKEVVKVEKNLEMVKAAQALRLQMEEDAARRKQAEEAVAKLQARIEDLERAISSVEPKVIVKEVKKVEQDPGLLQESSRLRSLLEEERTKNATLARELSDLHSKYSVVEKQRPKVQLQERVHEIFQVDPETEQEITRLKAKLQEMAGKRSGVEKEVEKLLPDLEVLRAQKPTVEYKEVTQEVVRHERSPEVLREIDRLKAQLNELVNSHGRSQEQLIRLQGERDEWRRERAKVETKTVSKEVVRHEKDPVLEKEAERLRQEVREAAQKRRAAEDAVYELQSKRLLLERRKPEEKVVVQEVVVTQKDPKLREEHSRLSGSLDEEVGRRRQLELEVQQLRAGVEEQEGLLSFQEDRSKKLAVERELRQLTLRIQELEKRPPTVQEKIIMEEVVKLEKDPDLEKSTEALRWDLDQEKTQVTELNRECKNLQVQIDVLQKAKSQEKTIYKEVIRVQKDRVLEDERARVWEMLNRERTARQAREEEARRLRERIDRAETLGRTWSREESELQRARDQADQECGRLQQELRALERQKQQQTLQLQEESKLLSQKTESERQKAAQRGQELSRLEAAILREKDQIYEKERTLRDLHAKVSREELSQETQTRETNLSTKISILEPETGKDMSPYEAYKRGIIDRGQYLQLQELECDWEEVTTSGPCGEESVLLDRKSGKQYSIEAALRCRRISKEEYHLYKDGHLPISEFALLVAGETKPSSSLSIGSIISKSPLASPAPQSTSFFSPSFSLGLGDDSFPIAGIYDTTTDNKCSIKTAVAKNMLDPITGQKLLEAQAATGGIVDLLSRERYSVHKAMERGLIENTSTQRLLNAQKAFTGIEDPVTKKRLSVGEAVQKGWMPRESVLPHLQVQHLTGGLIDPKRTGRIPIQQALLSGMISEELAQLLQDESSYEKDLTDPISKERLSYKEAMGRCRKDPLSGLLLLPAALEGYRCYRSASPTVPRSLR
UniProt Q9Y2C4: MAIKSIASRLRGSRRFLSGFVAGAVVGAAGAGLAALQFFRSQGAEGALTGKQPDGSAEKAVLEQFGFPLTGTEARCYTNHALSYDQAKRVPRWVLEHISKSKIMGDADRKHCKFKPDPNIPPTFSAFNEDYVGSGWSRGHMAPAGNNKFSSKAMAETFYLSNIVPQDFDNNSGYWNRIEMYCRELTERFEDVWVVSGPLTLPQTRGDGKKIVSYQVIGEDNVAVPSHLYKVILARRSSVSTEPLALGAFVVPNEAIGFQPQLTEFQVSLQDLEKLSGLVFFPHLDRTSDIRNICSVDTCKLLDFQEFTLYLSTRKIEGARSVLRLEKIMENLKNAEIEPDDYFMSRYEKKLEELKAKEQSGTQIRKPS

Compound in assay [2]: CC[C@H](C)N1C=C(C2=C(C=C(C=C21)C3=CN=C(C=C3)N4CCNCC4)C(=O)NCC5=C(C=C(NC5=O)C)C)C
The gist of the method:
as §1

Compound in a further assay: CC[C@H](C)[C@@H](C(=O)N[C@@H]([C@@H](C)O)C(=O)N[C@@H](CC(C)C)C(=O)[C@]1(CO1)C)NC(=O)[C@H]([C@@H](C)CC)N(C)C(=O)C [epoxomicin]
The gist of the method: as §1

Compound in assay [3]: CCn1c(C(=O)N(C2CC2)C2CC2)cc2c3c(ncn3C)c(Nc3cc(C)n(C)n3)nc21
In outline:
as §1

Compound in assay [4]: CN(C)CC(=O)Nc1ccc2[nH]c(=O)c3ccccc3c2c1
In outline:
as §1

Compound in another assay: CN(CCOC1=CC=C(C=C1)C[C@H]2C(=O)NC(=O)S2)C3=CC=CC=N3 (racemic) [rosiglitazone]
In outline: as §1

Compound in another assay: CN1CCN(c2nc(C3=C(c4c[nH]c5ccccc45)C(=O)NC3=O)c3ccccc3n2)CC1 [sotrastaurin]
The gist of the method: as §1

Compound in a further assay: CN1CCc2c(c3ccccc3n2Cc2ccc(C(=O)NO)cc2)C1 [Tubastatin A]
The gist of the method:
as §1

Compound in assay [5]: CNC(=O)C1=CC=CC=C1NC2=NC(=NC=C2Cl)NC3=C(C=C(C=C3)N4CCOCC4)OC
In outline:
as §1

Compound in another assay: CNC(=O)c1ccc(Nc2ncc(C(F)(F)F)c(NCc3nccnc3N(C)S(C)(=O)=O)n2)cc1 [defactinib]
In outline: as §1

Compound in the next assay: CNCc1ccc(-c2[nH]c3cc(F)cc4c3c2CCNC4=O)cc1 [rucaparib]
In outline: as §1

Compound in a further assay: COC(=O)N[C@@H](C)CNc1nccc(-c2cn(C(C)C)nc2-c2cc(Cl)cc(NS(C)(=O)=O)c2F)n1 [encorafenib]
The gist of the method: as §1

Compound in assay [6]: COC(=O)[C@H](CCSC)NC(=O)C1=C(C=C(C=C1)NC[C@H](CS)N)C2=CC=CC=C2
In outline: as §1

Compound in the next assay: CC[C@@H]1C(=O)N(C)c2cnc(Nc3ccc(C(=O)N[C@H]4CC[C@H](N5CCN(CC6CC6)CC5)CC4)cc3OC)nc2N1C(C)C [volasertib]
The gist of the method: as §1

Compound in assay [7]: CN1C2=C(C3=C1C(=O)N(N=C3)CC4=CC(=CC=C4)N)SC(=C2)S(=O)C
In outline: as §1

Compound in a further assay: CN1CCN(CCOc2cc(OC3CCOCC3)c3c(Nc4c(Cl)ccc5c4OCO5)ncnc3c2)CC1 [saracatinib]
In outline:
as §1

Compound in assay [8]: CNc1nc(-c2ccc3c(N)n[nH]c3c2)cc(N2C[C@@H](C(=O)NC3CCCCC3)CC[C@H]2C)n1
The gist of the method: as §1

Compound in assay [9]: CCn1cc(-c2ccnc3[nH]c(-c4cccc(CN(C)C)c4)cc23)c(-c2ccc(NC(=O)N(C)C)cc2)n1
The gist of the method: as §1

Compound in assay [10]: CN1CCC(CNc2ccc3ncc(-c4cccc(OC(F)(F)F)c4)n3n2)CC1
The gist of the method:
as §1

Compound in a further assay: CN1CC[C@H](c2c(O)cc(O)c3c(=O)cc(-c4ccccc4Cl)oc23)[C@H](O)C1 [alvocidib]
The gist of the method: as §1

Some of the results follow.

Take F10 (UniProt P00742): the log2 fold change in assay [1] was inactive: -0.136; in [2] it was inactive: 0.111; in the assay with epoxomicin, inactive: -0.155; in assay [3], inactive: -0.016; in [4], inactive: -0.006; with rosiglitazone it was inactive: 0.018. Besides, the log2 fold change with sotrastaurin is inactive: 0.202; with Tubastatin A, inactive: -0.047; in assay [5], inactive: 0.082; with defactinib, inactive: -0.396; in the assay with rucaparib it was inactive: -0.205; with encorafenib, inactive: -0.032. Also, the log2 fold change in assay [6] was inactive: 0.392.

EPB41L2 isoform 4 (UniProt O43491): the log2 fold change with volasertib was inactive: -0.044; in assay [2], inactive: -0.006; with epoxomicin, inactive: 0.049; with rosiglitazone it was inactive: 0.157; with sotrastaurin, inactive: -0.174.

As for FAM185A (UniProt Q8N0U4), the log2 fold change in the assay with volasertib was inactive: 0.027; in assay [2], inactive: -0.019; in assay [3], inactive: 0.002; in assay [4] it was inactive: 0.166; in the assay with rosiglitazone, inactive: 0.024; in [7], inactive: -0.05. Also, the log2 fold change with saracatinib is inactive: -0.059; with Tubastatin A, inactive: 0.07; in assay [5], inactive: -0.072; with defactinib, inactive: -0.084; in assay [8] it was inactive: 0.036; in assay [6] it was inactive: -0.045.

As for FAM126B (UniProt Q8IXS8), the log2 fold change is inactive: 0.004 with volasertib; inactive: -0.285 in assay [2]; inactive: -0.081 in [9]; inactive: -0.185 in assay [7]; inactive: 0.316 in assay [10]; inactive: 0.029 in the assay with saracatinib. In addition, the log2 fold change in assay [8] was inactive: 0.086.

Turning to FAM117B (UniProt Q6P1L5), the log2 fold change in assay [1] is inactive: -0.054; with epoxomicin, inactive: 0.021; in [9], inactive: 0.012; in assay [4], inactive: 0.11; in [7] it was inactive: -0.072; in [10], inactive: 0.017. Moreover, the log2 fold change was inactive: -0.004 in the assay with saracatinib; inactive: 0.084 with Tubastatin A; inactive: -0.035 in [5]; inactive: -0.494 in the assay with defactinib; inactive: -0.013 with rucaparib; inactive: -0.223 in assay [8]. Also, the log2 fold change was inactive: -0.092 with encorafenib and inactive: -0.341 in [6].

Take FAM160B2 (UniProt Q86V87): the log2 fold change in [1] is inactive: 0.09; in [9], inactive: 0.313; in assay [10] it was inactive: 0.091; with alvocidib, inactive: -0.533; with rucaparib it was inactive: 0.474; with encorafenib, inactive: 0.067.

With FAM118A (UniProt Q9NWS6), the log2 fold change in assay [1] was active: -0.812; with volasertib, inactive: -0.54; in [2], inactive: 0.136; in the assay with epoxomicin, inactive: 0.118; in assay [9] it was inactive: -0.075; in assay [4] it was inactive: 0.222. In addition, the log2 fold change in assay [7] was inactive: -0.007; in assay [10] it was inactive: -0.142; with saracatinib, inactive: -0.138; with sotrastaurin, inactive: -0.135; with Tubastatin A it was inactive: 0.029; with defactinib, inactive: -0.179. In addition, the log2 fold change was inactive: 0.29 with rucaparib, inactive: 0.068 in assay [8], inactive: -0.172 with encorafenib and inactive: -0.079 in [6].

In the case of EVPL (UniProt Q92817), the log2 fold change in assay [1] was inactive: 0.462; in assay [2] it was inactive: -0.374; in assay [9], inactive: -0.159; in assay [10], inactive: -0.17; with sotrastaurin, inactive: 0.157; in the assay with rucaparib, inactive: 0.009. For the same target, in the assay with encorafenib, the log2 fold change was inactive: -0.069.

For EXOG (UniProt Q9Y2C4), the log2 fold change is inactive: -0.035 in [1]; inactive: 0.018 with volasertib; inactive: 0.018 in assay [9]; inactive: -0.041 in assay [4]; inactive: 0.01 in assay [7]; inactive: 0.147 in assay [10]. The log2 fold change with saracatinib is inactive: 0.006; with alvocidib, inactive: 0.057; with Tubastatin A, inactive: -0.397; in the assay with defactinib it was inactive: 0.057; in the assay with rucaparib, inactive: 0.078; in assay [8], inactive: 0.008. The log2 fold change is inactive: 0.09 with encorafenib and inactive: -0.06 in [6].

With ERCC8 (UniProt Q13216), the log2 fold change is inactive: -0.003 in [1]; inactive: -0.014 with volasertib; inactive: -0.064 in [2]; inactive: -0.011 in [3]; inactive: -0.05 in [9]; inactive: 0.078 in assay [4]. For the same target, the log2 fold change is inactive: -0.015 with rosiglitazone; inactive: -0.013 in [7]; inactive: -0.093 in [10]; inactive: 0.189 with saracatinib; inactive: -0.067 in the assay with sotrastaurin; inactive: -0.058 with alvocidib. In addition, the log2 fold change was inactive: 0 with Tubastatin A; inactive: -0.005 in [5]; inactive: 0.071 in the assay with defactinib; inactive: -0.104 with rucaparib; inactive: -0.038 in [8]; inactive: 0.135 with encorafenib. Also, the log2 fold change in [6] is inactive: -0.139.

These data come from the supplement of paper PMC10849652.
